Consider 1 compound from paper PMC7467243, “Response to and recovery from treatment in human liver-mimetic clinostat spheroids: a model for assessing repeated-dose drug toxicity” (Toxicology Research, 2020).

For data set [1] the following is noted: cited from earlier work.
The conditions of data set [2]: cited from earlier work. The source holds these as a separate data set.
Data set [3] has as its system HepG2–C3A spheroids. Particulars: human. The protocol: Three hundred 21-day old spheroids (corresponding to ~25 million cells or 3.5 mg protein) were gently pipetted (using a cut-tip) into each 10 ml bioreactor before treatment to provide ample material for analysis. To initiate drug treatment, the bioreactor rotation was stopped for 30 s to allow the spheroids to settle to the bottom of the bioreactor. […] Each narrow range experiment was carried out in duplicate and ATP was measured in technical triplicates for each sample. […] Data were normalized to the vehicle-treated control. Error bars in the figures show standard deviation.
Cell viability was measured based on their ability to produce ATP [37]. […] The cells were then lysed with 100 μl of lysis buffer (CellTiter-Glo luminescent cell viability assay, Promega, Fitchburg, WI, Cat. no. G7571) and shaken in the dark for 20 min. Before the luminescence was measured in a FluoStar OPTIMA (BMG Labtech, Ortenberg, Germany) using the following parameters: one kinetic window, 10 measurement cycles with 0.3 s of measurement interval time, 2-s delay per measurement, additional 0.5-s delay per position change (repeated twice for each measured plate). Replicates were performed as described under the ‘Drug treatment’ Section. The data were normalized with reference to a standard curve for ATP and to the untreated control.

Data set [4] concerns HepG2–C3A spheroids.

Take `CCCCc1oc2ccccc2c1C(=O)c1cc(I)c(OCCN(CC)CC)c(I)c1` [Amiodarone]: in data set [1], the “DILI rank (risk to induce drug-induced liver injury)” value is on record as “vMost DILI”. In addition, in data set [2], the “Toxic dose, μg/ml in blood” value was 2.5 to 3 µg/mL. Also, in the data set with HepG2–C3A spheroids [3], the acute lethal dose worked out at 0.9 mg/mg. The “change in the LD50 with galactose medium” value in the data set with HepG2–C3A spheroids [4] is “no change”.
